Results deposited as PubChem BioAssay AID1508588 (Peter MacCallum Cancer Centre, 2020).
Here is a random part of about 18,000 reagents tested. In the full data, 790 (4.4%) are marked active. 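Calls rest on a combination of fold-change classes in drug and vehicle arms, not all shown here.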 Unmarked entries are inactive. A reagent listed more than once was tested more than once; the source does not tell the runs apart.

- Test: 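Knock-downs boosting vemurafenib effects on melanoma cell growth or lactate release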 (primary screen)
- Cell system: human WM266.4 melanoma cells (BRAF V600 mutant)
- Knock-down reagent: siRNA pool against human genes, 40 nM
- Duration: 96 h from transfection to read-out
- Treatment: vemurafenib 300 nM (about IC25), added 48 h after transfection, for 48 h; comparison arm got DMSO vehicle only
- Measured: 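Cell gain (DAPI nuclei at end minus before drug, mean of two replicates) and medium lactate by absorbance per cell, both as ratio to non-targeting siRNA, also grouped into fold-change classes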
- Reading the numbers: cell gain with vemurafenib: higher = more cell gain than with non-targeting siRNA; lactate per cell with vemurafenib: higher = more lactate made per cell
- Active means: 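a knock-down counts as enhancing when its fold-change classes with vehicle and with vemurafenib, taken together, show a stronger drug effect on cell gain or lactate per cell; exact class pairs not stated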
- Calls: active = enhances vemurafenib effect; inactive = no enhancement seen

FAM114A2 (family with sequence similarity 114 member A2)
- cell gain with vemurafenib: 0.88
- lactate per cell with vemurafenib: 0.69

NPR2 (natriuretic peptide receptor 2)
- cell gain with vemurafenib: 0.98
- lactate per cell with vemurafenib: 0.67

NPR2 (natriuretic peptide receptor 2)
- cell gain with vemurafenib: 0.78
- lactate per cell with vemurafenib: 1.06

BOLA2 (bolA family member 2)
- cell gain with vemurafenib: 0.79
- lactate per cell with vemurafenib: 1.15

PSMD12 (proteasome 26S subunit, non-ATPase 12)
- cell gain with vemurafenib: -0.04
- lactate per cell with vemurafenib: 2.67

COPS9 (COP9 signalosome subunit 9)
- cell gain with vemurafenib: 0.95
- lactate per cell with vemurafenib: 0.82

OR1L6 (olfactory receptor family 1 subfamily L member 6)
- cell gain with vemurafenib: 0.28
- lactate per cell with vemurafenib: 0.32

FUT9 (fucosyltransferase 9)
- cell gain with vemurafenib: 1.04
- lactate per cell with vemurafenib: 0.82

KCNE3
- cell gain with vemurafenib: 0.57
- lactate per cell with vemurafenib: 1.64

TRAPPC3 (trafficking protein particle complex subunit 3)
- cell gain with vemurafenib: 0.47
- lactate per cell with vemurafenib: 0.61

CD6 (CD6 molecule)
- cell gain with vemurafenib: 0.7
- lactate per cell with vemurafenib: 1.45

INF2 (inverted formin 2)
- cell gain with vemurafenib: 0.64
- lactate per cell with vemurafenib: 0.63

XPNPEP3 (X-prolyl aminopeptidase 3)
- cell gain with vemurafenib: 0.77
- lactate per cell with vemurafenib: 1.15

PRKD3 (protein kinase D3)
- cell gain with vemurafenib: 0.53
- lactate per cell with vemurafenib: 1.34

UGT1A5 (UDP glucuronosyltransferase family 1 member A5)
- cell gain with vemurafenib: 0.68
- lactate per cell with vemurafenib: 0.88

GON7 (GON7 subunit of KEOPS complex)
- cell gain with vemurafenib: 0.66
- lactate per cell with vemurafenib: 0.68

RAP2A (RAP2A, member of RAS oncogene family)
- cell gain with vemurafenib: 0.61
- lactate per cell with vemurafenib: 1.35

TBL1Y (transducin beta like 1 Y-linked)
- cell gain with vemurafenib: 0.31 (active)
- lactate per cell with vemurafenib: 0.16

KRTAP13-3 (keratin associated protein 13-3)
- cell gain with vemurafenib: 0.85
- lactate per cell with vemurafenib: 0.88

PCDH10 (protocadherin 10)
- cell gain with vemurafenib: 1.31
- lactate per cell with vemurafenib: 0.56

SYNRG (synergin gamma)
- cell gain with vemurafenib: 0.35
- lactate per cell with vemurafenib: 0.52

FARP2 (FERM, ARH/RhoGEF and pleckstrin domain protein 2)
- cell gain with vemurafenib: 0.6
- lactate per cell with vemurafenib: 0.38

TERF2 (telomeric repeat binding factor 2)
- cell gain with vemurafenib: 0.49
- lactate per cell with vemurafenib: 0.71

PDCD4 (programmed cell death 4)
- cell gain with vemurafenib: 0.64
- lactate per cell with vemurafenib: 0.42

SLC35A1
- cell gain with vemurafenib: 0.14
- lactate per cell with vemurafenib: 1.14

BNIP3 (BCL2 interacting protein 3)
- cell gain with vemurafenib: 0.42
- lactate per cell with vemurafenib: 1.64

SVEP1
- cell gain with vemurafenib: 1.01
- lactate per cell with vemurafenib: 0.42

GFRA2 (GDNF family receptor alpha 2)
- cell gain with vemurafenib: 0.99
- lactate per cell with vemurafenib: 0.97

LRP2 (LDL receptor related protein 2)
- cell gain with vemurafenib: 0.81
- lactate per cell with vemurafenib: 0.88

WWC2 (WW and C2 domain containing 2)
- cell gain with vemurafenib: 0.1
- lactate per cell with vemurafenib: 1.29

SGCA (sarcoglycan alpha)
- cell gain with vemurafenib: 0.32
- lactate per cell with vemurafenib: 1.17

NHLH1 (nescient helix-loop-helix 1)
- cell gain with vemurafenib: 0.16
- lactate per cell with vemurafenib: 0.24

TUBB2B (tubulin beta 2B class IIb)
- cell gain with vemurafenib: 0.84
- lactate per cell with vemurafenib: 0.51

MAB21L4 (mab-21 like 4)
- cell gain with vemurafenib: 0.57
- lactate per cell with vemurafenib: 1.9

TRAPPC14 (trafficking protein particle complex subunit 14)
- cell gain with vemurafenib: 0.17
- lactate per cell with vemurafenib: 0.85

KBTBD6 (kelch repeat and BTB domain containing 6)
- cell gain with vemurafenib: 1.08
- lactate per cell with vemurafenib: 0.88

DNAI7 (dynein axonemal intermediate chain 7)
- cell gain with vemurafenib: 0.6
- lactate per cell with vemurafenib: 0.84

CFLAR (CASP8 and FADD like apoptosis regulator)
- cell gain with vemurafenib: 0.43
- lactate per cell with vemurafenib: 0.92

OSTM1 (osteoclastogenesis associated transmembrane protein 1)
- cell gain with vemurafenib: 0.04
- lactate per cell with vemurafenib: 2.31

SPTSSA (serine palmitoyltransferase small subunit A)
- cell gain with vemurafenib: 0.33
- lactate per cell with vemurafenib: 0.66

Hits, among the entries above:
TBL1Y (transducin beta like 1 Y-linked)
- cell gain with vemurafenib: 0.31 (active)
- lactate per cell with vemurafenib: 0.16
